Data: publication PMC6367351 (Nature Communications, 2019)

What was measured:
[1] = target: T1, MinElp3Δ1-46 del1-46 (Methanocaldococcus infernus) (UniProt D5VRB9); experiment: EMSA; conditions: EMSA: 25 C 30 min, 6% native PAGE at 4 C; tRNA stored in 20 mM HEPES pH 7.5, 150 mM NaCl, 5 mM DTT, 1 mM MgCl2; recombinant protein; residues 47-534; protein details: GST tag cleaved (TEV); label: Cy5
T1 sequence (looked up): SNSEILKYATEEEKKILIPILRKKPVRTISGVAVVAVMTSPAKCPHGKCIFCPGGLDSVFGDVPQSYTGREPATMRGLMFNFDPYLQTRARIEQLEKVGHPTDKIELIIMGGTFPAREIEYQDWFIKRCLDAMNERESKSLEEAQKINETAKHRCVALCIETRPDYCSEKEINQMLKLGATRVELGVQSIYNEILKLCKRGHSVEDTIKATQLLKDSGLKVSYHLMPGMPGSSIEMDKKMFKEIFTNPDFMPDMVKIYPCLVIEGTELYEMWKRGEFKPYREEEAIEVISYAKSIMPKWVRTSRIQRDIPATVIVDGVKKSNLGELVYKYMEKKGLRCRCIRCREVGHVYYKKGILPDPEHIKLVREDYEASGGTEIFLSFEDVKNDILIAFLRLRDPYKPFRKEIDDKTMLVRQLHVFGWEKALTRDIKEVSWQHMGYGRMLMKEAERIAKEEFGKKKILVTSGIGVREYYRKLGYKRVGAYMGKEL

[2] = target: T2, MinElp3 (Methanocaldococcus infernus) (UniProt D5VRB9); experiment: MST; conditions: replicates 322, 539, 293 nM; recombinant protein; residues 1-534; protein details: GST tag cleaved (TEV); label: Cy5-CTP (internal); probe letters rebuilt from the primers and the genome
T2 sequence (looked up): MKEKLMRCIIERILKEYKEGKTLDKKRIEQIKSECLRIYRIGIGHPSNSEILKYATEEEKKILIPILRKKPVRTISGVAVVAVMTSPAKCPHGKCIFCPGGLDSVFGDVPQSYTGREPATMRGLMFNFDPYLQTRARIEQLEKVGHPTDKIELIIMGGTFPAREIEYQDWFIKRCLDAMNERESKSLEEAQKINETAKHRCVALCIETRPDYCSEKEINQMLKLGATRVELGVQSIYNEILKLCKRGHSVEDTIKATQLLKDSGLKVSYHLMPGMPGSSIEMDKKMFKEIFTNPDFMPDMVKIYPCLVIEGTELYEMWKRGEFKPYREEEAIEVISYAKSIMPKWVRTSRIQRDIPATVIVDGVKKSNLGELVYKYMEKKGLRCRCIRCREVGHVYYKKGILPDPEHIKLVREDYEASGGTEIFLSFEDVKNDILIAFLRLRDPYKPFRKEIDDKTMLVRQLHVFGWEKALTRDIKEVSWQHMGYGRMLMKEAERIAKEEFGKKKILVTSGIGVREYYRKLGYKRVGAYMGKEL

[3] = target: T2, MinElp3 (Methanocaldococcus infernus); experiment: EMSA; conditions: EMSA: 25 C 30 min, 6% native PAGE at 4 C; tRNA stored in 20 mM HEPES pH 7.5, 150 mM NaCl, 5 mM DTT, 1 mM MgCl2; recombinant protein; residues 1-534; protein details: GST tag cleaved (TEV); label: Cy5

“GACAGACUUGAAAUCUGUU [ASL yeast tRNASerUGA]”: binds more weakly [1].

In the case of “GGCACUAUGGCCGAGUGGUUAAGGCGACAGACUUGAAAUCUGUUGGGCUCUGCCCGCGCUGGUUCAAAUCCUGCUGGUGUCGGCGUCUUCCCAUGGGUGUAUUCGGUCG [(Sc)tRNASerUGA]”, the Kd [2] is reported as 370 nM.

UUUUUUUUU [polyU]: binds more weakly [3].

For part of these data: Weaker means in comparison with the reference protein, sequence or condition of that experiment. Protein sequences can lack the tags named with them. For part of these data: The exact form of at least one protein or probe is not confirmed.
